Where a sequence shows no end group, the ends are not given.

This series is described as follows: general procedure: Fmoc solid-phase peptide synthesis; Rink amide MBHA resin (100–200 mesh, 0.4–0.8 mmol/g loading); HATU/DIPEA. As to conditions: purification step.
For GSLIIENGNCSGDLSTLLPNLTVIRNQVI, the step yield was 32%. IPRDASLPFLKEVTGSLLVYDTEGPEDL displayed a step yield of 28%. Sequence HKQSDESEFPPSWTRS returned a step yield of 28%. As to TLLRLNTIQGSIFN, the step yield is reported as 37%.

The sequence AKDANNIEDDPVN had a step yield of 28%. Regarding ILPVIVDEVVSLKSDTVG, the step yield was 28%.

The sequence HEPKCHKVIEPITN displayed a step yield of 44%. For the sequence MDIRNNLTRLHELENCSVIEGHLQILLMF, the step yield is 21%. Take IGIDESESIIETIC: the step yield is 19%. In turn, PRNHDQSYTDSNHS had a step yield of 30%. In turn, NLSNLEFDLIEKSNG came in with a step yield of 35%. For MFTLNRNLCPNDV, the step yield is reported as 40%. As for AYLIWIRILEDNPSEY, the step yield is given as 38%.

“LFFNYALVIFEMVHLKELGLYNLMNITRGSVRIEKNNELC” displayed a step yield of 25%. QSGWDKNSLFKHSRQI returned a step yield of 40%.
